In PubChem BioAssay AID2685 (National Center for Advancing Translational Sciences (NCATS), 2010) one finds cell number change and AC50 data, which are given here for 18 compounds.

The list shows a part of the results. The main result of the screen is listed elsewhere. These columns were measured beside it and carry no call. Compounds called inactive in the main read-out are mostly missing here. Potencies come from curve fits of mixed quality, noted in brackets.

The test can be described thus: qHTS Assay for Lipid Storage Modulators in Drosophila S3 Cells.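 For cell number change: cells counted by Cell Tracker Red CMTPX staining in the red channel.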 The conditions noted are these: BODIPY lipid droplet fluorescence, 18-24 h; for cell number change: measured here: cell count max response, cells fed with added oleic acid. Summed up: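 Drosophila S3 cells got compounds at several concentrations plus oleic acid (400 uM solution). Laser-scanning cytometry with 488 nm excitation read lipid droplets at 500-530 nm and cells at 575-640 nm. Percent activity was relative to 20 uM Triacsin C.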
(qHTS replaces the single test concentration by a dilution series.)

The mark [1] stands for this setting: measured here: cell number channel AC50, cells fed with added oleic acid.
Where [2] appears, read: measured here: lipid fluorescence (Fed channel) AC50, cells fed with added oleic acid.

Turning to `CCOC(=O)C1=C(COC(=O)/C=C/c2cc(Br)ccc2F)NC(=O)NC1C` (configuration not stated), the cell number change is -21%. For the same compound, the AC50 under setting [1] is 4.61 µM [falling, single point]. Moreover, the half-maximal activity concentration (AC50) under setting [2] was 6.51 µM [falling, single point].
As for `CCC(CC)c1nnc(NC(=O)/C=C/c2ccco2)s1`, the cell number change was -19.6%. The AC50 under setting [2] was 8.2 µM [falling, partial curve, poor fit].
Take `COc1ccc(CN2CCN(C(=O)Cn3ncn4cccc4c3=O)CC2)c(OC)c1OC`: the cell number change is 16.7%. For the same compound, the AC50 under setting [2] is 29.1 µM [rising, single point].
As for `O=C(Nc1c(-c2ccccc2)nc2sccn12)c1ccccc1`, the cell number change stood at 9.87%.
With `COc1ccc2[nH]c(C(=O)O)c(NC(=O)c3cc(OC)c(OC)c(OC)c3)c2c1`, the cell number change is 9.93%. Moreover, the AC50 under setting [2] was 3.26 µM [rising, full curve, poor fit].
Consider `COc1cc2c(cc1OC)CN(C(=O)c1ccc([N+](=O)[O-])o1)CC2`, for which the half-maximal activity concentration (AC50) under setting [2] is 16.4 µM [falling, single point].
Take `CCc1ccc(C(=O)N/N=C(\C)c2ccncc2)s1`: the cell number change was found to be 19%. Besides, the AC50 under setting [2] is 0.116 µM [rising, full curve, poor fit].
For `CCOc1ccc(OCCC(=O)OCC(=O)N2CCN(S(=O)(=O)c3ccc(C)cc3)CC2)cc1`, the cell number change was -2.81%.
On to `CC(C)CNC(=S)N1CCC(C(=O)c2ccc3c(c2)OCCO3)CC1`, for which the cell number change was -30.6%. For the same compound, the half-maximal activity concentration (AC50) under setting [1] is 29.1 µM [falling, single point].
On to `CCn1cc(CN2CCCC(CNS(=O)(=O)c3cccc4cccnc34)C2)cn1` (configuration not stated), for which the cell number change was -8.38%.
For `COc1ccc(S(=O)(=O)N2CCCC(C(=O)O)C2)cc1Cl` (configuration not stated), the cell number change was -55.2%. For the same compound, the AC50 under setting [1] was 23.1 µM [falling, partial curve, poor fit]. For the same compound, the AC50 under setting [2] is 0.13 µM [falling, full curve, poor fit].
`CCOC(=O)c1sc(NC(C)=O)nc1-c1ccccc1`: the cell number change was -17.7%.
Regarding `CCc1nccn1S(=O)(=O)c1cc(Br)ccc1OC`, the cell number change stood at 20.8%. The AC50 under setting [2] is 2.06 µM [rising, partial curve].
`COc1cc(S(=O)(=O)N2CCCCC2)ccc1NC(=O)c1ccncc1`: the cell number change amounted to 2.63%.
For `CN1C/C(=C/c2ccsc2)C(=O)/C(=C/c2ccsc2)C1`, the cell number change is -15.1%. Besides, the half-maximal activity concentration (AC50) under setting [2] was 14.6 µM [falling, partial curve].
Turning to `COc1ccc(CN(Cc2cc3cccc(C)c3[nH]c2=O)C(=O)N(C)C)cc1`, the cell number change amounted to 30%.
Consider `Cc1nc(-c2ccc(NC(=O)c3ccccc3Br)cc2)cs1`, for which the cell number change was 6.74%. Under setting [2], the half-maximal activity concentration (AC50) was 1.84 µM [rising, full curve, poor fit].
For `Cc1cc(NC(=O)C2C3C(=O)N(Cc4ccc(Cl)cc4)C(C(=O)NCc4ccccc4)C34C=CC2(C)O4)no1` (configuration not stated), the cell number change came to 38.9%. Under setting [1], the AC50 was 13 µM [rising, partial curve, poor fit]. For the same compound, the concentration at half-maximal activity (AC50) under setting [2] is 6.51 µM [rising, single point].

Broadly, the AC50 is the midpoint of the concentration-response curve, whichever way the signal moves.
